Source: publication PMC7819943, “Rice protein-binding microarrays: a tool to detect cis-acting elements near promoter regions in rice”
The other results are listed elsewhere or left out.

The chains behind the UniProt entries cited, without tags or fusion partners.
UniProt Q0JBA9, entry or part of it: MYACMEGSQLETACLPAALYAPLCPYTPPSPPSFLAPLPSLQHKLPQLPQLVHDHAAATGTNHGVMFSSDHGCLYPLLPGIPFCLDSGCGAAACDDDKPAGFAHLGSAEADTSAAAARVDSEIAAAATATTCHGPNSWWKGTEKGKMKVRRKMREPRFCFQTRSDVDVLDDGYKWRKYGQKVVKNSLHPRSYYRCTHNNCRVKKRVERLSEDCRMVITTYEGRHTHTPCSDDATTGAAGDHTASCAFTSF

Target: OsWRKY34 (Oryza sativa, UniProt Q0JBA9 1-250)
Assay: protein-binding microarray (RPBM); PBS, 2% BSA, 51.3 ng/ul salmon testes DNA, 50 uM zinc acetate, 200 nM TF, 25 C, 1 h; high values mean tight binding
Settings: protein: recombinant; tags: N-terminal polyhistidine and DsRed monomer fusion (pET32a); label: CyDye5-dUTP incorporated in the synthesized complementary strand; 3' TTTTT single-stranded linker to array surface; dsDNA, one strand shown
Outline: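 Polyhistidine-tagged DsRed fusions of transcription factors, joined at the N-terminus, were expressed in E. coli BL21-CodonPlus and isolated on Ni–NTA. They were incubated at 200 nM for 1 h at 25 °C on a custom Agilent array, double-stranded and BSA-blocked, in PBS with 2% BSA, salmon testes DNA and 50 µM zinc acetate. The binding signal is per-feature fluorescence intensity (arbitrary units) read on an Axon 4000B scanner after washing.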

Sequence | binding signal
ACACGTTTTGGAGTTTTAACATTAGACCATTTTAGTTTTTCGGAGTCACCTAGTGCAG | 10100 fluorescence intensity (a.u.)
TTGTTTATCGTTTTCTTGTTATTTTATGGATTTTATTGAACGGAGTCACCTAGTGCAG | 9370 fluorescence intensity (a.u.)
ACACATGCCTGAACAAATGTCACGACCTCTCTCTCTCTCTCGGAGTCACCTAGTGCAG | 9980 fluorescence intensity (a.u.)
GAAAATTTCCACTGCGATCCTCTTCAACATCTTCGTTTCCCGGAGTCACCTAGTGCAG | 8160 fluorescence intensity (a.u.)
ACCTGTATTCCCGCACACGAGCTGACTTTGCATTTATTTACGGAGTCACCTAGTGCAG | 16200 fluorescence intensity (a.u.)
TCTGCGCGCTCTCCAGCGTCGCCCTCGCCAGGACGGCCGGCGGAGTCACCTAGTGCAG | 8710 fluorescence intensity (a.u.)
TCTTCTGAAGTTAGTACTACCCCACCACAGCACCACTTGCCGGAGTCACCTAGTGCAG | 8550 fluorescence intensity (a.u.)
CCCGAATCAAACAAACAACACATAACTCTTTCGTTTGATCCGGAGTCACCTAGTGCAG | 8420 fluorescence intensity (a.u.)
TACCACTTCCTCGCATTTTGGTTTGTTTTGTTATAGAAGACGGAGTCACCTAGTGCAG | 11500 fluorescence intensity (a.u.)
CCCGTCTCCATTTCTTTTGTCTCTCTCTCGCTCTTCAAATCGGAGTCACCTAGTGCAG | 13400 fluorescence intensity (a.u.)
CACTTTTTCATTCATAGGATGTTACATCAAGATCTGTGTTCGGAGTCACCTAGTGCAG | 8100 fluorescence intensity (a.u.)
TTTCCATTTCTTGCCGTTTTCTTCCACATTCTTCTCTGCTCGGAGTCACCTAGTGCAG | 15000 fluorescence intensity (a.u.)
ATCTTTTGCTGTTGTAATAGAACTAACACACTCTTTCATCCGGAGTCACCTAGTGCAG | 8410 fluorescence intensity (a.u.)
TCCAATACCACCTCCTTCGCTTGCATGATTGCCTCCAAAACGGAGTCACCTAGTGCAG | 9650 fluorescence intensity (a.u.)
TGACAGCGGTAGATGTGGGTGGTGGTGGGAGGGGAGGATGCGGAGTCACCTAGTGCAG | 16200 fluorescence intensity (a.u.)
GGCGGTGGTGGTGGAGGAGGAGCGGGACGCGCGCGCCGCGCGGAGTCACCTAGTGCAG | 12000 fluorescence intensity (a.u.)
TTGCTCTTCCATTCTTTTGCCCTTCACTCCTCTCTCATCTCGGAGTCACCTAGTGCAG | 10700 fluorescence intensity (a.u.)
TGTAGTATTTTTCCCCGACATTTACATATTGACTTTTCGACGGAGTCACCTAGTGCAG | 8940 fluorescence intensity (a.u.)
AAACTGATACCTATTTTCCTTCACATAAGTGCCGCCTGTTCGGAGTCACCTAGTGCAG | 8840 fluorescence intensity (a.u.)
ACCCCGGTGTTGCCACCTAACCCATCGATCACCTACTGCCCGGAGTCACCTAGTGCAG | 8060 fluorescence intensity (a.u.)
GGGAATGATACGCGTGGGCCCCACCATTTTTTATTAATTTCGGAGTCACCTAGTGCAG | 8890 fluorescence intensity (a.u.)

A section taken from the entries so far, as a working copy:
Sequence | binding signal
AAACTGATACCTATTTTCCTTCACATAAGTGCCGCCTGTTCGGAGTCACCTAGTGCAG | 8840 fluorescence intensity (a.u.)
ACCCCGGTGTTGCCACCTAACCCATCGATCACCTACTGCCCGGAGTCACCTAGTGCAG | 8060 fluorescence intensity (a.u.)
GGGAATGATACGCGTGGGCCCCACCATTTTTTATTAATTTCGGAGTCACCTAGTGCAG | 8890 fluorescence intensity (a.u.)

Next entries follow:

Sequence | binding signal
TCCACTGGGAGATGTCTTTGTATTATTGACCGAGCTTGTCCGGAGTCACCTAGTGCAG | 8830 fluorescence intensity (a.u.)
ATTGCTCCATATGCTTCCTTTCTTCCGCTAGGACCGCTACCGGAGTCACCTAGTGCAG | 11500 fluorescence intensity (a.u.)
TGGTGGCGTCTGTATTGGGTTTCTTTCTCCAAGTTATATTCGGAGTCACCTAGTGCAG | 9710 fluorescence intensity (a.u.)
CGAAAGATTTTTTCTTATCTCTCACTCGATTTTCTCACTCCGGAGTCACCTAGTGCAG | 8660 fluorescence intensity (a.u.)
TATCCTTTTGCATTAATTATTGTTACTGATTTTTCTCGTCCGGAGTCACCTAGTGCAG | 10000 fluorescence intensity (a.u.)
ATCTGTGTGTATGTTTGTGGGTTTCTGTCCATTGAGATATCGGAGTCACCTAGTGCAG | 12100 fluorescence intensity (a.u.)
GCTCCTCGTCGCCACCGATCCCCGCCGCCGGCTTGCCTCACGGAGTCACCTAGTGCAG | 9340 fluorescence intensity (a.u.)
AAGAGGACCAAAACCAACCCCATCGCCCGAGAGCCCCAAACGGAGTCACCTAGTGCAG | 8150 fluorescence intensity (a.u.)
ATCATGCATGATATAGTGCAGTACCCTTTTTTTTGTGTATCGGAGTCACCTAGTGCAG | 9960 fluorescence intensity (a.u.)
GTGGAGGCGGAAGAGTGAGCGCGGGAGGAGGAGGGGAGGGCGGAGTCACCTAGTGCAG | 11900 fluorescence intensity (a.u.)
TCCTGCCTCCTCCAAAATTTTCTTCTGTTCATCCATTTTGCGGAGTCACCTAGTGCAG | 10200 fluorescence intensity (a.u.)
ATCTTCTGATATTCATATACCATGTTCCTACACTTATGACCGGAGTCACCTAGTGCAG | 8290 fluorescence intensity (a.u.)
GTGGGCTTGTCATTTGTCAACACTGCAGTACAGCACCGTTCGGAGTCACCTAGTGCAG | 9120 fluorescence intensity (a.u.)
TGGATGGAGGTCGGGGATGACAGGTGGGGACCTGTCGGGGCGGAGTCACCTAGTGCAG | 11000 fluorescence intensity (a.u.)
ATTGCCATCTGATCTGATCCTTTATACAGCTATATACCTCCGGAGTCACCTAGTGCAG | 10700 fluorescence intensity (a.u.)
GTGGGGTTGGAGGAGGGAGGGAGCTAGCTATAGTTGCTAGCGGAGTCACCTAGTGCAG | 9980 fluorescence intensity (a.u.)
TTTTTATATACTTGCCAGGCTTTTCTTGTAGTAAGTTCCTCGGAGTCACCTAGTGCAG | 8020 fluorescence intensity (a.u.)
TTATTAATTGTTACATTTTCTTTGTTTATATATACGCACACGGAGTCACCTAGTGCAG | 9100 fluorescence intensity (a.u.)
CACACAGCGCAGTCGCTCTCCCTCGCCTCGCTCACCTGCGCGGAGTCACCTAGTGCAG | 10300 fluorescence intensity (a.u.)
TCTGTCTTGCTGTTCCCTCGATCTTGCACACACCAAAGTTCGGAGTCACCTAGTGCAG | 8490 fluorescence intensity (a.u.)
AGCACTAGTTCACCACTTGATGGCTCAAGCACACTACATACGGAGTCACCTAGTGCAG | 8340 fluorescence intensity (a.u.)

Sequence | binding signal
GCAAATATTTAATTAATCACACGTTAATGTACTGCTTCGTCGGAGTCACCTAGTGCAG | 10200 fluorescence intensity (a.u.)
TGCTCGGCCTCGTCGTGTCCGCTCTCGTCCCTGCCCTCCGCGGAGTCACCTAGTGCAG | 9720 fluorescence intensity (a.u.)
GCCTTGCCGTGAAGCTTCGAAATTTAACTCTTTCCCGCGTCGGAGTCACCTAGTGCAG | 8940 fluorescence intensity (a.u.)
AATTCAGCTTTGTCAAACATTACCTAATTTCATATATCTACGGAGTCACCTAGTGCAG | 8330 fluorescence intensity (a.u.)
GGATAGACATGCTAACTATTCTCTTACACGAGTATTACATCGGAGTCACCTAGTGCAG | 8580 fluorescence intensity (a.u.)
ATCCTGTCTCCGAACTCCCTACACTTGTTGTTTTCATCTTCGGAGTCACCTAGTGCAG | 12000 fluorescence intensity (a.u.)
GTAGGGGAGGGGTTAGCGCTAGGGAACGCGATCGAGCACCCGGAGTCACCTAGTGCAG | 11900 fluorescence intensity (a.u.)
CTCGTATAGGAGTAGTGTCCAGTTTTAGCTCCATTTTTTTCGGAGTCACCTAGTGCAG | 8040 fluorescence intensity (a.u.)
GGGAGGGAGAGCTTGTAGACACGGCCGTTGTTGCAGGTGACGGAGTCACCTAGTGCAG | 14200 fluorescence intensity (a.u.)
GAATCTAGATAACTCCATGTTCATATTCGTGTTGTTTTTTCGGAGTCACCTAGTGCAG | 12100 fluorescence intensity (a.u.)
CTTTCAGTCACTTTTCCACTGGCTTACGAGTTCTAACAACCGGAGTCACCTAGTGCAG | 9310 fluorescence intensity (a.u.)
GTAATCCTCAATTTGGGCCGCATTCTTGTTAGCAAAGACCCGGAGTCACCTAGTGCAG | 8210 fluorescence intensity (a.u.)
CGACTGCATGGCGCGGTTCGCATGTAACATCTTCTACCTACGGAGTCACCTAGTGCAG | 8280 fluorescence intensity (a.u.)
TGTGTGTCTAGTTAGGGCTACTTCTACTGCTGCTTCTCCTCGGAGTCACCTAGTGCAG | 8780 fluorescence intensity (a.u.)
CCTTCCCCGTCGCGCTCTCCTTGGCGTCGGACATCTTCTCCGGAGTCACCTAGTGCAG | 8780 fluorescence intensity (a.u.)
CACCTCAACCTGTCCAGCAATGCTTTCACCGGCGATGTGCCGGAGTCACCTAGTGCAG | 8590 fluorescence intensity (a.u.)
CACGAAAGCTGCCACGCTTGTTGTGCTCTGACTTCTTCTTCGGAGTCACCTAGTGCAG | 8080 fluorescence intensity (a.u.)
TCCGTGCCTAACTTTGATCATCCGTCTTATTTGAAACTTTCGGAGTCACCTAGTGCAG | 9110 fluorescence intensity (a.u.)
ATTTGCCCATTTGGACCTGTTTAGTTGTAAAAAATTTTATCGGAGTCACCTAGTGCAG | 10300 fluorescence intensity (a.u.)
TAGCTCCGCCCCTGGCCGTGAAATCGTGGGGAGATTTTCTCGGAGTCACCTAGTGCAG | 8780 fluorescence intensity (a.u.)
TCACCCTGCTTTTTTCCATGGTTAGTCATCGCTGATGGCACGGAGTCACCTAGTGCAG | 8160 fluorescence intensity (a.u.)

Sequence | binding signal
ATCACACCTTGATCAATCCAAAGAAGCTTACCTCTCATTTCGGAGTCACCTAGTGCAG | 8380 fluorescence intensity (a.u.)
AACTAGTGCACAACTACACATCAGCTTCAGTCTGCTCACTCGGAGTCACCTAGTGCAG | 10400 fluorescence intensity (a.u.)
CCCCACGAGAGCCAATCCTGACCGTCCAATCCGCGGCGTCCGGAGTCACCTAGTGCAG | 9000 fluorescence intensity (a.u.)
ATCCTGCTAAGCTCTCCCGGGTTGGAGTCTTCTTCCATTTCGGAGTCACCTAGTGCAG | 9050 fluorescence intensity (a.u.)
TACATTAACCTCTGCTTTCTGCGACACGCCGACACCTCCTCGGAGTCACCTAGTGCAG | 8580 fluorescence intensity (a.u.)
ATACTGTATTCTTACGTTTGACCTGAATGGTCAGCCTCCCCGGAGTCACCTAGTGCAG | 8780 fluorescence intensity (a.u.)
GTGGGTTTGGTTGGTAGTAAGTTGTTGGTTAGGGCCTCCCCGGAGTCACCTAGTGCAG | 8580 fluorescence intensity (a.u.)
CAAATGGCCCACCTGTCCTAGCTTGGCCCGGCCCGGGCACCGGAGTCACCTAGTGCAG | 8680 fluorescence intensity (a.u.)
CTTCTCATCCCCTCCGGCCCATCCACCTCGCTTCGCTAGCCGGAGTCACCTAGTGCAG | 9180 fluorescence intensity (a.u.)
GAATCTGCTTCTCATTCTTTTTTTCTTGCTGATCATCATGCGGAGTCACCTAGTGCAG | 10200 fluorescence intensity (a.u.)
TCCTTTTCCTACTTCCCTTGGTAACTTGACAAAATTATCTCGGAGTCACCTAGTGCAG | 9520 fluorescence intensity (a.u.)
GCCATAATTACGCAGGCCGCCATCGTCGTCGTCGTCTTCGCGGAGTCACCTAGTGCAG | 9210 fluorescence intensity (a.u.)
ATTGAATCCGCCTCTCCGCTCCGCTCCGCTCCTTCCGCTCCGGAGTCACCTAGTGCAG | 8140 fluorescence intensity (a.u.)
TAGTTAACGTTAATTTCTGGTCACCCACCTGTTGACTACCCGGAGTCACCTAGTGCAG | 8040 fluorescence intensity (a.u.)
AGATTCTTACAACCTAATTATTTTCACTGCATCCATCACACGGAGTCACCTAGTGCAG | 10200 fluorescence intensity (a.u.)
TATATAGGGAATTTTCTCTACATCTTACCATGCAGTTTTTCGGAGTCACCTAGTGCAG | 8050 fluorescence intensity (a.u.)
GTCCCTCGCCTCCGCTTCCTGATTTTTCTTTTCCCGTTTCCGGAGTCACCTAGTGCAG | 11800 fluorescence intensity (a.u.)
GAAAGAGAGAAGAGTGTTGCTAATGGAGTGTTCTTGTTCACGGAGTCACCTAGTGCAG | 8090 fluorescence intensity (a.u.)
AGCGCGCGCAGCTTTGCAGGCGTGGTCGGGGTCGTTGTGCCGGAGTCACCTAGTGCAG | 9700 fluorescence intensity (a.u.)
TCGTAGGGGTAGAGTTTGCGTGCGTGTGTTCATAGGGGTGCGGAGTCACCTAGTGCAG | 8600 fluorescence intensity (a.u.)
GCCGCTAGTCCTTATCGCCGCCGCCGCCCACCTCGCCATGCGGAGTCACCTAGTGCAG | 9030 fluorescence intensity (a.u.)
